Reference: PMC10468069
Results are given in words; binding and its absence hold for the method and conditions named. Binding seen in cells or lysates may run through a third protein. Some results given as binding are weak or reduced against the parent protein; the word gives no strength.

The chains behind the UniProt entries cited, without tags or fusion partners.
UniProt P53894: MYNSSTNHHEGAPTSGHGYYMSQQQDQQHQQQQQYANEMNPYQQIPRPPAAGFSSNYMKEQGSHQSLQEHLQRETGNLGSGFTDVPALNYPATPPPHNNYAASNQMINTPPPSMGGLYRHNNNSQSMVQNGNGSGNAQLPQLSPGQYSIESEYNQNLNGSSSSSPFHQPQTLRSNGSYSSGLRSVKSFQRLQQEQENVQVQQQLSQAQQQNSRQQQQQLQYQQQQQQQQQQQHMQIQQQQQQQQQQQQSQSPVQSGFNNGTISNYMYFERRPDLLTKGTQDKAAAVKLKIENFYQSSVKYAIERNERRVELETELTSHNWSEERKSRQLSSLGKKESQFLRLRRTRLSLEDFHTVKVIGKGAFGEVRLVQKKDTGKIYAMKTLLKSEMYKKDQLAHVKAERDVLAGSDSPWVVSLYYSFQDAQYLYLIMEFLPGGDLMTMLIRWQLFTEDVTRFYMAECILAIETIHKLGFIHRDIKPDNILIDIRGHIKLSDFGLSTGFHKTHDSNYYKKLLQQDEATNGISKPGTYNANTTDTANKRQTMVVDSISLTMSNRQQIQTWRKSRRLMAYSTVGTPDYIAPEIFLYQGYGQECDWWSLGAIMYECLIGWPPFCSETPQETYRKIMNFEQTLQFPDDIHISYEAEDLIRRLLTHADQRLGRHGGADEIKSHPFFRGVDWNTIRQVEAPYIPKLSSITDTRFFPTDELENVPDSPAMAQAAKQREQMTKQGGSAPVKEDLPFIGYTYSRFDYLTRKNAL
UniProt P33332: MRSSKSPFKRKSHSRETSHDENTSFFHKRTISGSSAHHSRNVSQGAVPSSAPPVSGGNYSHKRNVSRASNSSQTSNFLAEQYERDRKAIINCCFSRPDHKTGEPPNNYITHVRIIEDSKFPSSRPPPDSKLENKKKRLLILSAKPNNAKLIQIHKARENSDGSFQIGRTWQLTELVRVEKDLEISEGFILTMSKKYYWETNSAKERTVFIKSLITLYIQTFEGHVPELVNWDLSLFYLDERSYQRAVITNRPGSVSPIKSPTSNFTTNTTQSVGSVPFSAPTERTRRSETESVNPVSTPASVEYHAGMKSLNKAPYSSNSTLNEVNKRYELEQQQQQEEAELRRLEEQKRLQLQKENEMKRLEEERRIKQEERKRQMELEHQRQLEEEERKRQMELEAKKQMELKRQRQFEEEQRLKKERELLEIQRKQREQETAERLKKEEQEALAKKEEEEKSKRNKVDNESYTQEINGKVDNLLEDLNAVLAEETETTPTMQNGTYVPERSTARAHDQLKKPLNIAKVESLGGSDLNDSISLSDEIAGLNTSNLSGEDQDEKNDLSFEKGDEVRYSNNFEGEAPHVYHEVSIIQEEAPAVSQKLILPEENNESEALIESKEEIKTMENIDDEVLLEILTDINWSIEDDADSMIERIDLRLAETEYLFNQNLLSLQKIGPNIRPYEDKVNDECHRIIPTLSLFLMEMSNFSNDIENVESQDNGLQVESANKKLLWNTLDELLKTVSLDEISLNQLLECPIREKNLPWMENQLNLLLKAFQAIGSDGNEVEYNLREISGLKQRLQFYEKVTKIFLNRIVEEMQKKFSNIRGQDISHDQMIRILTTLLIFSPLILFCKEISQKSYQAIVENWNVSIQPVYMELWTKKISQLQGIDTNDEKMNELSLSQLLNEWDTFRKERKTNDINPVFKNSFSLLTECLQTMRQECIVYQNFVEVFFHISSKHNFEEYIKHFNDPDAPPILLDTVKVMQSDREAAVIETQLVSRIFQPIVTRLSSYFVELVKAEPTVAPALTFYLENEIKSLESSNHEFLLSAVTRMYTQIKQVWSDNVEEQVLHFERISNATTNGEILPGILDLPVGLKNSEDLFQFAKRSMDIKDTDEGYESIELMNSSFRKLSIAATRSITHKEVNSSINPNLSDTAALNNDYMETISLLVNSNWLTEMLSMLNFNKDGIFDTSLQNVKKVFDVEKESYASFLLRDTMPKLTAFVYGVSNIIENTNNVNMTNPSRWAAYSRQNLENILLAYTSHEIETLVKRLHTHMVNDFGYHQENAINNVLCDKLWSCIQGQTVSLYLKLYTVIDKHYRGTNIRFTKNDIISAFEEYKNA
UniProt P35169: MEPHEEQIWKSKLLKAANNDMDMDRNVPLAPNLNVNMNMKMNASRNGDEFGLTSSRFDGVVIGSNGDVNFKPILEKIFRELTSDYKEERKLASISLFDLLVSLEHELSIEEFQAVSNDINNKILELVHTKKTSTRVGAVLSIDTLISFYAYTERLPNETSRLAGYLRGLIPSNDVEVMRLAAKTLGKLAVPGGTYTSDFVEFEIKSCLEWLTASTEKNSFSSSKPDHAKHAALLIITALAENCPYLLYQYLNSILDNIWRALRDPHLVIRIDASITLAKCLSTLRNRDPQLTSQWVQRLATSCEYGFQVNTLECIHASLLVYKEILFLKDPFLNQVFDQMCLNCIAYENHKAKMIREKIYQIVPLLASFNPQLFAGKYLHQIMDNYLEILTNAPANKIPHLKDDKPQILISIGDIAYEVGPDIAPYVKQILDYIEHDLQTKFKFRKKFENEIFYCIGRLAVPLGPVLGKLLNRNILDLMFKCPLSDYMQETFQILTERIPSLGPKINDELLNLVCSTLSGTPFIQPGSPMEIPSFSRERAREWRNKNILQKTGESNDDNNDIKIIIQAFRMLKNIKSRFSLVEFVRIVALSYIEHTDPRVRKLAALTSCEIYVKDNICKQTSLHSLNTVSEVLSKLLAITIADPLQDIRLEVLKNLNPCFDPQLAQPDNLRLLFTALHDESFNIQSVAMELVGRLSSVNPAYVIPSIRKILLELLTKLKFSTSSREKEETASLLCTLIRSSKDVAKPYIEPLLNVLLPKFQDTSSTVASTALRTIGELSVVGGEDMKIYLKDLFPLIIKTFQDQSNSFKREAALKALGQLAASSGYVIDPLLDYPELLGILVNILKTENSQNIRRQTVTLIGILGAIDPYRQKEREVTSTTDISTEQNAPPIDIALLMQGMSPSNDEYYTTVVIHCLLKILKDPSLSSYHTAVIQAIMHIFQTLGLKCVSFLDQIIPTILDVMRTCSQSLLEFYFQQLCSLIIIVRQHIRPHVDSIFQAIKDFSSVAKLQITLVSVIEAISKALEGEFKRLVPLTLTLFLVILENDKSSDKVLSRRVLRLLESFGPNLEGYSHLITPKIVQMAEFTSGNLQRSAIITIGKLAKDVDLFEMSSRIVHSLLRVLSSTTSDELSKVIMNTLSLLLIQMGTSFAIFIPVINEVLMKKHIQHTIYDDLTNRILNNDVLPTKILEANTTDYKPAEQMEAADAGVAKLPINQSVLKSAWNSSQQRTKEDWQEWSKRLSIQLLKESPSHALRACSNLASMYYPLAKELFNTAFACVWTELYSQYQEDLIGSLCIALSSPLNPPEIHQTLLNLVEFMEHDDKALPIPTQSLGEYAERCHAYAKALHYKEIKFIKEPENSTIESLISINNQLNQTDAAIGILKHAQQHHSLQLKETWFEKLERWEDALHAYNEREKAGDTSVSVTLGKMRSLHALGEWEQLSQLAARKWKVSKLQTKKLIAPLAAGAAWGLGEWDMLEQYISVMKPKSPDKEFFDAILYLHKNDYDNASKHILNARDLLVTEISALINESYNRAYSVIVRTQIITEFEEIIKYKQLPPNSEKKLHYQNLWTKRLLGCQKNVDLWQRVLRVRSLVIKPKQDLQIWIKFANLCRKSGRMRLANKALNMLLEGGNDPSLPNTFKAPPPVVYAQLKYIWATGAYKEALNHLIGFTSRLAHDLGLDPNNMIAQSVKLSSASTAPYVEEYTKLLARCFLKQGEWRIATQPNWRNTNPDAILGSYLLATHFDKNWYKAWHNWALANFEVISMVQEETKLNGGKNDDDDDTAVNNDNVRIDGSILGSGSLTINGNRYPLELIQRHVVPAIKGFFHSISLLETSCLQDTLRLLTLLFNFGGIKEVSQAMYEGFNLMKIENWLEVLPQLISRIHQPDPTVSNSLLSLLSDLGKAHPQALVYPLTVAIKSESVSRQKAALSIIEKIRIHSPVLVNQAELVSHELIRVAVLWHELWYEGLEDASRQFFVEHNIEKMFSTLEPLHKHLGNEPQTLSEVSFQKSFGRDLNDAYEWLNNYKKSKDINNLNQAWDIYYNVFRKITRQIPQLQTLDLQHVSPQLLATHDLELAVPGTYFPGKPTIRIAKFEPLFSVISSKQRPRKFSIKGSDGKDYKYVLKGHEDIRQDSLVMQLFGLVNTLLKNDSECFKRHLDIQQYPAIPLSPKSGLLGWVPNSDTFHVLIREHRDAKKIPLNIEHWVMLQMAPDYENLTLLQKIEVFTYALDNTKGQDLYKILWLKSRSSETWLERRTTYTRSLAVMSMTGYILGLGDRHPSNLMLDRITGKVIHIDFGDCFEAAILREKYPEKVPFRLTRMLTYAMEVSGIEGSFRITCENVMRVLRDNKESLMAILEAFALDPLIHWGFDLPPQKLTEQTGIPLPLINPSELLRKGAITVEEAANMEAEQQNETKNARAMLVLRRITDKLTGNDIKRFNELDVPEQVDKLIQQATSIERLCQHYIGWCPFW
UniProt P40357: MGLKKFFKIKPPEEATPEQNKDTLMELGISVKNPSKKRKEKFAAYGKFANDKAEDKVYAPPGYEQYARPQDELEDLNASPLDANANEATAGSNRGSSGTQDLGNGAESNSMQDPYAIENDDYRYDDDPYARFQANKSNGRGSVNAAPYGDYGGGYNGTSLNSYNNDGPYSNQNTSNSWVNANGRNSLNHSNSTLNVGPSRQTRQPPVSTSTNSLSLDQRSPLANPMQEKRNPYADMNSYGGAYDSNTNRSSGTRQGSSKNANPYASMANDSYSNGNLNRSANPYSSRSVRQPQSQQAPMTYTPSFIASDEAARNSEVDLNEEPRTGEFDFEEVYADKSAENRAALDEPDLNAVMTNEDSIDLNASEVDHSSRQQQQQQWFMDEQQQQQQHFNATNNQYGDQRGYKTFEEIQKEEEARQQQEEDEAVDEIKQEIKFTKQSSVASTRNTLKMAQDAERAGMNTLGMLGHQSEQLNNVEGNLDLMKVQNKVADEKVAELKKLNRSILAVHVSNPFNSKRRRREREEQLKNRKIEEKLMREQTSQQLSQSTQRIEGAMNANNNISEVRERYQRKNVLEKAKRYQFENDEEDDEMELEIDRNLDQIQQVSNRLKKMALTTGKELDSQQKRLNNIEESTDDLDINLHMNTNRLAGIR

Legend:
[1] = biological target: Cbk1-5FLAG (S. cerevisiae) (UniProt P53894); test: co-IP; Cbk1-5FLAG immunoprecipitated on FLAG-beads from extracts of cdc15-2 cells arrested in late anaphase at 37 °C, with or without rapamycin for 20 min; immunoblotting
Cbk1-TAP (S. cerevisiae) = Cbk1-TAP (S. cerevisiae) (UniProt P53894); test: co-IP; Cbk1-TAP immunoprecipitated on IgG beads from extracts of cdc15-2 cells arrested in late anaphase at 37 °C, with or without rapamycin for 20 min; immunoblotting
Sec3-TAP (S. cerevisiae) = Sec3-TAP (S. cerevisiae) (UniProt P33332); test: co-IP; Sec3-TAP immunoprecipitated from extracts of cdc15-2 cells arrested at 37 °C and released at 24 °C for 45 min, with or without rapamycin; immunoblotting with sera against Sso1 (also recognises Sso2) and Sec9

With “HA3-Tor1 (from UniProt P35169 1-2470) (enzyme)” the binding [1] was “binds”.
Sec3-5FLAG (from UniProt P33332 1-1336) was tested, and the binding (Cbk1-TAP (S. cerevisiae)) was “binds”.
With Sec9 (from UniProt P40357 1-651) the binding (Sec3-TAP (S. cerevisiae)) was “binds”.
